Measurements from US20230312724A1.
Results are given in words; binding and its absence hold for the method and conditions named. Some results given as binding are weak or reduced against the parent protein; the word gives no strength.

Protein sequences, listed by entry. Tags and fused reporters are not part of them. Lines headed by an entry give the natural chain unless they say otherwise; changes in a name come on top.
UniProt Q7Z7D3: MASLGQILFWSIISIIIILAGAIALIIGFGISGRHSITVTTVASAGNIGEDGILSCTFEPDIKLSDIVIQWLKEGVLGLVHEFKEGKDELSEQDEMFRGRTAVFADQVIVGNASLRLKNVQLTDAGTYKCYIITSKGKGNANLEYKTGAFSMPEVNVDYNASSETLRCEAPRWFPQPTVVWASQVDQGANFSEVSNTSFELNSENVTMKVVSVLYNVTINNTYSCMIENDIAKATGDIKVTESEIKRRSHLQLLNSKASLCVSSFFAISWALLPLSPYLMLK
UniProt Q7TSP5: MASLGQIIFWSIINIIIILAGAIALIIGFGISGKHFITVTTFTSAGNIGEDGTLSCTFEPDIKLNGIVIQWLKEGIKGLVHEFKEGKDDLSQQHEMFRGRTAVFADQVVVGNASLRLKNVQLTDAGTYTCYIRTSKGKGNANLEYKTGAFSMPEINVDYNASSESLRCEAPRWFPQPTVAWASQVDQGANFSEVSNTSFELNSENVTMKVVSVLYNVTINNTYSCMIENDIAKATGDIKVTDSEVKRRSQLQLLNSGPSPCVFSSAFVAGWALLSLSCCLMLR

Tests used:
[1] = target: hB7-H4 (soluble human B7-H4, construct not named) (human) (UniProt Q7Z7D3); assay: summary of ELISA and flow cytometry
human B7-H4-his (human) [2] = target: human B7-H4-his (human) (UniProt Q7Z7D3); assay: ELISA, coated hB7-H4-his
[3] = target: IgV domain of human B7-H4-Fc (human); assay: ELISA
[4] = target: hB7-H4 (soluble human B7-H4, construct not named) (human) (UniProt Q7Z7D3); assay: ELISA
human B7-H4-Fc (human) [5] = assay: ELISA, coated hB7-H4-Fc
[6] = target: IgV domain of human B7-H4-Fc (human); assay: ELISA, coated hB7-H4 IgV domain
mouse B7-H4-his (mouse) [7] = target: mouse B7-H4-his (mouse) (UniProt Q7TSP5); assay: ELISA on coated mB7-H4-his
[8] = target: IgV domain of mouse B7-H4-Fc (mouse; human); assay: ELISA, coated mB7-H4 IgV domain
[9] = target: IgV domain of human B7-H4-Fc (human); assay: ELISA on coated IgV domain of hB7-H4
[10] = target: IgV domain of mouse B7-H4-Fc (mouse; human); assay: ELISA on coated IgV domain of mB7-H4
human B7-H4-Fc (human) [11] = assay: ELISA on coated hB7-H4-Fc
mouse B7-H4-his (mouse) [12] = target: mouse B7-H4-his (mouse) (UniProt Q7TSP5); assay: ELISA, coated mB7-H4-his
human B7-H4-his (human) [13] = target: human B7-H4-his (human) (UniProt Q7Z7D3); assay: ELISA on coated hB7-H4-his
[14] = target: IgV domain of human B7-H4-Fc (human); assay: ELISA (FIG. 9)
[15] = target: IgV domain of human B7-H4-Fc (human); assay: ELISA (FIG. 16)
[16] = target: IgV domain of human B7-H4-Fc (human); assay: ELISA (FIG. 14)
[17] = target: IgV domain of mouse B7-H4-Fc (mouse; human); assay: ELISA (FIG. 14)
[18] = target: mB7-H4 (soluble mouse B7-H4, construct not named) (mouse) (UniProt Q7TSP5); assay: summary of ELISA and flow cytometry
[19] = target: mB7-H4 (soluble mouse B7-H4, construct not named) (mouse) (UniProt Q7TSP5); assay: ELISA and flow cytometry (FIG. 6)
[20] = target: hB7-H4 (soluble human B7-H4, construct not named) (human) (UniProt Q7Z7D3); assay: ELISA and flow cytometry (FIG. 6)

Measured: binding

B1: 1A12/1A12 (antibody, human IgG1, V domains shown)
VH: EVQLLESGGGLVKPGGSLRLSCAASGFTFSSYAMHWVRQAPGKGLEWVAVISYDGSNKYYADSVKGRFTISRDDSKNTLYLQMNSLKTEDTAVYYCARHGWDAFDIWGQGTLVTVSS
VL: DIQMTQSPSSLSASVGDRVTITCRASQDISNRLNWYQQKPGKAPKLLIYLASSLQGGVPSRFSGSGSGTDFTLTISSLQPEDFATYYCQQAISFPLTFGGGTKVEIK
binds: [1] | human B7-H4-his (human) [2] | [3] | [4] | human B7-H4-Fc (human) [5] | [6]

B2: Control antibody 1 (antibody 20502 described in US20190085080A1) (antibody, V domains shown)
VH: QLQLQESGPGLVKPSETLSLTCTVSGGSIKSGSYYWGWIRQPPGKGLEWIGNIYYSGSTYYNPSLRSRVTISVDTSKNQFSLKLSSVTAADTAVYYCAREGSYPNQFDPWGQGTLVTVSS
VL: EIVMTQSPATLSVSPGERATLSCRASQSVSSNLAWYQQKPGQAPRLLIYGASTRATGIPARFSGSGSGTEFTLTISSLQSEDFAVYYCQQYHSFPFTFGGGTKVEIK
binds: mouse B7-H4-his (mouse) [7] | [8] | human B7-H4-his (human) [2] | [9] | [10] | human B7-H4-Fc (human) [11] | human B7-H4-Fc (human) [5] | mouse B7-H4-his (mouse) [12] | human B7-H4-his (human) [13] | [6]

B3: 1D3/45A2 (antibody, human IgG1, V domains shown)
VH: EVQLLESGGGLVQPGGSLRLSCAASGFTFNTHAMHWVRQAPGKGLEWVSAISGSGGSTYYADSVKGRFTISRDISKNTLYLQMNSLRAEDTAVYYCARLLGRFGEYGMDVWGQGTTVTVSS
VL: DIQMTQSPSSLSASVGDRVTITCRASQNIYTWLAWYQQKPGKAPKLLIYDATNLPTGVPSRFSGSGSGTDFTLTISSLQPEDFATYYCQQSYSTRWTFGGGTKVEIK
binds: human B7-H4-his (human) [2] | [14] | human B7-H4-Fc (human) [5] | [6]

B4: 1D3/47B2 (antibody, human IgG1, V domains shown)
VH: EVQLLESGGGLVQPGGSLRLSCAASGFTFNTHAMHWVRQAPGKGLEWVSAISGSGGSTYYADSVKGRFTISRDISKNTLYLQMNSLRAEDTAVYYCARLLGRFGEYGMDVWGQGTTVTVSS
VL: DIQMTQSPSSLSASVGDRVTITCRASQTVYTWLAWYQQKPGKAPKLLIYDATNLATGVPSRFSGSGSGTDFTLTISSLQPEDFATYYCQQSYSTSWTFGGGTKVEIK
binds: human B7-H4-his (human) [2] | [14] | human B7-H4-Fc (human) [5] | [6]

B5: 3F2/50A10 (antibody, human IgG1, V domains shown)
VH: QVQLVQSGAEVKKPGASVKVSCKASGYTFTAQYMYWVRQAPGQGLEWMGRINPTSGNTVYAQKLQGRVTMTRDTSTSTVYMELSSLRSEDTAVYYCARGINWFDPWGQGTLVTVSS
VL: DIQMTQSPSSLSASVGDRVTITCQASQDISNYINWYQQKPGKAPKLLIYAASRLQSGVPSRFSGSGSGTDFTLTISSLQPEDFATYYCQQSYRSPFTFGQGTKLEIK
binds: human B7-H4-his (human) [2] | [9] | [14] | [15] | human B7-H4-Fc (human) [11] | human B7-H4-Fc (human) [5] | human B7-H4-his (human) [13] | [6]

B6: 39A11/62F9 (antibody, human IgG1, V domains shown)
VH: EVQLLESGGGLVQPGGSLRLSCAASGFTFSSYGMHWVRQAPGKGLEWVASISSSSGYIYYADSVKGRFTISRDNSKNTLYLQMNSLRAEDTAVYYCARASSGMDVWGQGTTVTVSS
VL: DIQMTQSPSSLSASVGDRVTITCRASQSVSSAVAWYQQKPGKAPKLLIYAASIRESGVPSRFSGSGSGTDFTLTISSLQPEDFATYYCQQYYSTPLTFGQGTKLEIK
binds: [8] | human B7-H4-Fc (human) [5] | [16] | [17] | [6]

B7: 39A11/56H7 (antibody, human IgG1, V domains shown)
VH: EVQLLESGGGLVQPGGSLRLSCAASGFTFSSYGMHWVRQAPGKGLEWVASISSSSGYIYYADSVKGRFTISRDNSKNTLYLQMNSLRAEDTAVYYCARASSGMDVWGQGTTVTVSS
VL: DIQMTQSPSSLSASVGDRVTITCRASQSISSYLNWYQQKPGKAPKLLIYAASNLQSGVPSRFSGSGSGTDFTLTISSLQPEDFATYYCQQYYTTPLTFGQGTKLEIK
binds: [8] | human B7-H4-Fc (human) [5] | [16] | [17] | [6]

B8: 39A11/57H3 (antibody, human IgG1, V domains shown)
VH: EVQLLESGGGLVQPGGSLRLSCAASGFTFSSYGMHWVRQAPGKGLEWVASISSSSGYIYYADSVKGRFTISRDNSKNTLYLQMNSLRAEDTAVYYCARASSGMDVWGQGTTVTVSS
VL: DIQMTQSPSSLSASVGDRVTITCQASQDIRKYLNWYQQKPGKAPKLLIYAASTRESGVPSRFSGSGSGTDFTLTISSLQPEDFATYYCQQYYSLPLTFGQGTKLEIK
binds: [8] | human B7-H4-Fc (human) [5] | [16] | [17] | [6]

B9: 39A11/56A9 (antibody, human IgG1, V domains shown)
VH: EVQLLESGGGLVQPGGSLRLSCAASGFTFSSYGMHWVRQAPGKGLEWVASISSSSGYIYYADSVKGRFTISRDNSKNTLYLQMNSLRAEDTAVYYCARASSGMDVWGQGTTVTVSS
VL: DIQMTQSPSSLSASVGDRVTITCRASQSISSYLNWYQQKPGKAPKLLIYAASIRESGVPSRFSGSGSGTDFTLTISSLQPEDFATYYCQQYYTTPLTFGQGTKLEIK
binds: [8] | human B7-H4-Fc (human) [5] | [16] | [17] | [6]

B10: 4H6/4H6 (antibody, human IgG1, V domains shown)
VH: EVQLLESGGGLVQPGGSLRLSCAASGFTFSSYGMHWVRQAPGKGLEWVSGISGSGGSTYYADSVKGRFTISRDNSKNTLYLQMNSLRAEDTAVYYCARTQWRASLDPWGQGTLVNVSS
VL: DIQMTQSPSSLSASVGDRVTITCRASQDISYWLAWYQQKPGKAPKLLIYGASTLQSGVPSRFSGSGSGTDFTLTISSLQPEDFATYYCQQTTMSPYTFGQGTKVEIK
binds: [1] | [3] | [4] | human B7-H4-Fc (human) [5] | [6]

B11: 5F4/5F4 (antibody, human IgG1, V domains shown)
VH: EVQLLESGGGLVKPGGSLRLSCAASGFTFSSYAMHWVRQAPGKGLEWVSAIGGSGRTTYYADSVKGRFTISRDDSKNTLYLQMNSLKTEDTAVYYCARERGYSYGQIDYWGQGTLVTVSS
VL: DIVMTQSPLSLPVTPGEPASISCRSSQSLLHSNGYNYLDWYLQKPGQSPQLLIYAASSLQSGVPDRFSGSGSGTDFTLKISRVEAEDVGVYYCMQGAHWPLTFGQGTKVEIK
binds: [18] | [1] | [19] | [20] | human B7-H4-Fc (human) [5]

B12: 5E4/5E4 (antibody, human IgG1, V domains shown)
VH: QVQLVQSGAEVKKPGASVKVSCKASGYTFTSYDINWVRQAPGQGLEWMGWMNPNSGNTGYAQKFQGRVTMTRDTSTSTVYMELSSLRSEDTAVYYCARGELWFGEFDYYYYYGMDVWGQGTTVTVSS
VL: DIQMTQSPSSLSASVGDRVTITCRASQSISSYLNWYQQKPGKAPKLLIYGASSLQSGVPSRFSGSGSGTDFTLTISSLQPEDFATYYCQQADRIPFTFGRGTKVEIK
binds: [18] | [1] | [19] | [20] | human B7-H4-Fc (human) [5]

B13: 5G6/5G6 (antibody, human IgG1, V domains shown)
VH: QVQLVQSGAEVKKPGASVKVSCKASGYTFTSYYMHWVRQAPGQGLEWLGWVNPNTGTTRFAQKFQGRVTMTRDTSTSTVYMELSSLRSEDTAVYYCARDANYYYGMDVWGQGTMVTVSS
VL: DIVMTQSPDSLAVSLGERATINCKSSQSVLYSSNNKNYLAWYQQKPGQPPKLLIYWASTRESGVPDRFSGSGSGTDFTLTISSLQAEDVATYYCQKYNSALPITFGQGTRLEIK
binds: [18] | [1] | [19] | [20] | human B7-H4-Fc (human) [5]
